These are yes or no findings as the source states them, for the method shown. In cells and extracts the contact can be indirect. Some results given as binding are weak or reduced against the parent protein; the word gives no strength.

The chains behind the UniProt entries cited, without tags or fusion partners. Residues count along the entry.
UniProt P23368, residues 19-584: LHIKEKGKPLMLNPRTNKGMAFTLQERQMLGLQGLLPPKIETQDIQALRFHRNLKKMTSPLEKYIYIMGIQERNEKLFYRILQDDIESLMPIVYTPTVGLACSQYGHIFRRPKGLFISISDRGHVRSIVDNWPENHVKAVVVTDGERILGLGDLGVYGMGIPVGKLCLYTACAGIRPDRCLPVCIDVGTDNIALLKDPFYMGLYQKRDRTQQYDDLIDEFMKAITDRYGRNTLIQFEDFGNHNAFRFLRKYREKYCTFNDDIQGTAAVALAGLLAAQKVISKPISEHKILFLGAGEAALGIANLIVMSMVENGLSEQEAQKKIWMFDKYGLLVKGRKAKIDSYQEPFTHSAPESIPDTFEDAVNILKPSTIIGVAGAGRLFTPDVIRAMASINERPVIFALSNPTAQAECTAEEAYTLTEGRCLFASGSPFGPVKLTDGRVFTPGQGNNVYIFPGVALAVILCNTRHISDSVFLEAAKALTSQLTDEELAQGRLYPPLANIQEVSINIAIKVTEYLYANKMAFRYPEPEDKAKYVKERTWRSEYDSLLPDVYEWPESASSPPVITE
UniProt Q99873: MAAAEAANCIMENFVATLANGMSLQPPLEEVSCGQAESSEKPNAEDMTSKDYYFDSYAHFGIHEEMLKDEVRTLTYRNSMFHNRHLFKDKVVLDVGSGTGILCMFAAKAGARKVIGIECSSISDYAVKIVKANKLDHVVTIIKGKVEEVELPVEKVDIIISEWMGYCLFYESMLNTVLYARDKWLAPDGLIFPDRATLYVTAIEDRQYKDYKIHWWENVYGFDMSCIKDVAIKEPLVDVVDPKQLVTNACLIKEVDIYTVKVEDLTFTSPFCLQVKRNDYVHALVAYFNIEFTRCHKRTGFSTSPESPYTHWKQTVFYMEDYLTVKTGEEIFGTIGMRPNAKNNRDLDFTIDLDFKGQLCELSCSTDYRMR
UniProt Q969H0: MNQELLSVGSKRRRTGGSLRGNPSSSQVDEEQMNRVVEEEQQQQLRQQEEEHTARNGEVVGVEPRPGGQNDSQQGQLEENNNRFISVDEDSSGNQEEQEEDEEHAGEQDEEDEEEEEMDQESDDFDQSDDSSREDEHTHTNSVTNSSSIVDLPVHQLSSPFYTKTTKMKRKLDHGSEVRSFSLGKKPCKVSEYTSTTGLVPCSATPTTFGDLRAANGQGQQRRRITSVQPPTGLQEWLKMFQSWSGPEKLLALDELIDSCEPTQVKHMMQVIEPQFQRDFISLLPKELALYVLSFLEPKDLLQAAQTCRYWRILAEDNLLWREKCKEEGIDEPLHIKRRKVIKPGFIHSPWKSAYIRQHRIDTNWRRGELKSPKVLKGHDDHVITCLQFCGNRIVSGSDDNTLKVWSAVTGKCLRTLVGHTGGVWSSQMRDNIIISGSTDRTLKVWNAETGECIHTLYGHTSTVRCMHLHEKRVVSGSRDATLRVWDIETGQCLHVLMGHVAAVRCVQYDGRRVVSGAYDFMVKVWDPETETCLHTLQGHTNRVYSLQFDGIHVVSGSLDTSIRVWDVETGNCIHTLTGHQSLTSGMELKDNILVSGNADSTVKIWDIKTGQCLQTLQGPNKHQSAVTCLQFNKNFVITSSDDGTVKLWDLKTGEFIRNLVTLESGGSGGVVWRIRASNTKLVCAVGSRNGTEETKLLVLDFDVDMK

The target of experiment [1] is ME2 (mitochondrial malic enzyme 2), endogenous (human (endogenous in HCC cells)) (UniProt P23368). Nature of the experiment: co-IP; immunoprecipitation of endogenous ME2 and FBW7 (Fig. 7E); cells not named.
For experiment [2] the target is unchanged. Nature of the experiment: co-IP; endogenous immunoprecipitation of FBW7 and ME2, effect of PRMT1 (Fig. 7I); cells not named.
The target in experiment [3] is ME2, exogenous (co-IPs with FBW7) (human) (UniProt P23368). Description: co-IP; exogenous immunoprecipitation of FBW7 and ME2 (Fig. 7F, G); cells and tags not named.
Experiment [4] shares this target. Description: co-IP; exogenous immunoprecipitation of FBW7 and ME2 with PRMT1 (Fig. 7H); cells and tags not named.
The target of another experiment is Flag-tagged PRMT1 (UniProt Q99873). Nature of the experiment: co-IP; HEK293T cells transfected with Flag-tagged PRMT1 and HA-tagged ME2; anti-Flag M2 magnetic beads, NP40 buffer washes, western blotting.
Experiment [5] concerns the target ME2 in cytoplasmic and mitochondrial fractions of transfected HCC cells (human) (UniProt P23368). Nature of the experiment: co-IP; cytoplasmic and mitochondrial fractions of HCC cells transfected with indicated plasmids, immunoprecipitated with an anti-Flag antibody, western blotting. (Immunoblotting shows a protein as a band on a membrane.)
The target of experiment [6] is ME2 (mitochondrial malic enzyme 2), endogenous (human (endogenous in HCC cells)) (UniProt P23368). Nature of the experiment: co-IP; endogenous ME2 and PRMT1 in HCC cells, immunoprecipitation in both directions (Fig. 1D, E), western blotting.

For “FBW7, endogenous (immunoprecipitations of Fig. 7E and 7I) (from UniProt Q969H0 1-707)”, the binding entry in experiment [1] and in experiment [2] was “binds” in each case.

“FBW7, exogenous (from UniProt Q969H0 1-707)”: the binding result in experiment [3] and in experiment [4] was “binds” throughout.

Take “HA-tagged ME2 (mitochondrial malic enzyme 2) (from UniProt P23368 19-584)”: the binding result in the experiment with Flag-tagged PRMT1 is recorded as “binds”.

Regarding “PRMT1 in cytoplasmic and mitochondrial fractions of transfected HCC cells (from UniProt Q99873 1-371) (enzyme)”, the binding result in experiment [5] is reported as “binds”.

As for “protein arginine methyltransferase 1 (PRMT1), endogenous in HCC cells (from UniProt Q99873 1-371) (enzyme)”, the binding result in experiment [6] was “binds”.

Values taken from publication PMC11555414.
